Measurements taken from article PMC8669001.
These are yes or no findings as the source states them, for the method shown. In cells and extracts the contact can be indirect. Some entries that bind do so weakly or less than the wild type. One block for each binder: values may come before it.

Sequences of proteins named here, by UniProt entry; tags and fusion partners are left off. Residues count along the entry.
UniProt Q9QY81, residues 27-1886: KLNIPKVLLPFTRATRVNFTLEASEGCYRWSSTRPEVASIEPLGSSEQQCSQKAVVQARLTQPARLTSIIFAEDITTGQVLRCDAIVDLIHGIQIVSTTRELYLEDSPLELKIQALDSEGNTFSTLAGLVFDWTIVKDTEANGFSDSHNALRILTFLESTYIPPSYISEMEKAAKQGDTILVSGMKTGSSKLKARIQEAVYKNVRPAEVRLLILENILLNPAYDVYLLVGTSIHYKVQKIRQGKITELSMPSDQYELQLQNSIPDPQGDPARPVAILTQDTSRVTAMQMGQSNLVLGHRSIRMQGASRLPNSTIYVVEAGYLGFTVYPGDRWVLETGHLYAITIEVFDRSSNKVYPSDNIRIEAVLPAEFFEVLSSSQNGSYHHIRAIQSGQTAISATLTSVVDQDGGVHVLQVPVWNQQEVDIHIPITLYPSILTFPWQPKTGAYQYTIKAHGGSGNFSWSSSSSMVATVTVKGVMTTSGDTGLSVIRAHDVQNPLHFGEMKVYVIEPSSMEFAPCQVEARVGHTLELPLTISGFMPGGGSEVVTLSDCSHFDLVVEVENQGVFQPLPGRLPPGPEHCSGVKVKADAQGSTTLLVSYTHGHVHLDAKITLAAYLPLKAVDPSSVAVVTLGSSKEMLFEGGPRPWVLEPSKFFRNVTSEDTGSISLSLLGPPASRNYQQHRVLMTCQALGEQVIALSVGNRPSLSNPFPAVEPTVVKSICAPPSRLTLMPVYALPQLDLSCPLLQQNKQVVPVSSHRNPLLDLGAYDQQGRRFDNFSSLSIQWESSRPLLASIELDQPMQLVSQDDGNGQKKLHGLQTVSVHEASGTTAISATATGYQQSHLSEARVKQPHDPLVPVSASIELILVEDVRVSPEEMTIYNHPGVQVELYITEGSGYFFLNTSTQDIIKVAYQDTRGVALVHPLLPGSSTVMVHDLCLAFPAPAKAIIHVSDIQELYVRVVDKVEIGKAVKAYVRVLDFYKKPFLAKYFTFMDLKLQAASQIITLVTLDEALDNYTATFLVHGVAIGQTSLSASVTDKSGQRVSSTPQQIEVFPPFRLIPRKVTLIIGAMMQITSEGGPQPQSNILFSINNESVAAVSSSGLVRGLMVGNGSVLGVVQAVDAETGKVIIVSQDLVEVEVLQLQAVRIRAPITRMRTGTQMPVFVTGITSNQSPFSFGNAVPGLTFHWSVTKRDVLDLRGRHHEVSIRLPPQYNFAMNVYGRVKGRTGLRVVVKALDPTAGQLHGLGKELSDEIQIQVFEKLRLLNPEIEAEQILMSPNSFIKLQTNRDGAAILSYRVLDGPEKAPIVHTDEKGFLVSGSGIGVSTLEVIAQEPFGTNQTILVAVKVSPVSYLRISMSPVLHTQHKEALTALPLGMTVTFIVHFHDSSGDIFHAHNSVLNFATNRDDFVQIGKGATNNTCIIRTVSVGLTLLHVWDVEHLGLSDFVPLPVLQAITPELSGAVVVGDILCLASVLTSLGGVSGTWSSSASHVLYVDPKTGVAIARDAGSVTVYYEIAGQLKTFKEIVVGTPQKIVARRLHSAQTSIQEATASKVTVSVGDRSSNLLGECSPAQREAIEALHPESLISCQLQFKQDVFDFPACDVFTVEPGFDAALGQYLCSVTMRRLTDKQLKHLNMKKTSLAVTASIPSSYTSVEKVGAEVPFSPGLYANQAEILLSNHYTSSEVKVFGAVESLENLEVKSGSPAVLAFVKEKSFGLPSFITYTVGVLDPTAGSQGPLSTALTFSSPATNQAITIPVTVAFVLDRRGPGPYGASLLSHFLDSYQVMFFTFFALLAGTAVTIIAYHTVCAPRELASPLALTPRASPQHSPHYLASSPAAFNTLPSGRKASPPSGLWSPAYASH

What was measured:
[1] = target: EZH2 (mouse (endogenous in 4T1)), Q61188; assay: co-IP; nuclear lysates (Nuclear Complex Co-IP Kit) of 4T1 cells, including sg-Ctrl and Nup210 KO cells; 200–500 μg lysate with 2 μg antibody and Dynabeads Protein G overnight at 4 °C, western blot; settings: remark: other sources report otherwise
[2] = target: NUP210-Myc (stably overexpressed in 4T1 cells) (mouse) (UniProt Q9QY81); assay: as above

binding [1]: binds
B1: SUZ12, Q80U70 1-741 (protein)
chain: MAPQKHGGGGGGGSGPSAGSGGGGFGGSAAAVAAAASGGKSGGGGCGGGGSYSASSSSAAAAAAAAGAAVLPVKKPKMEHVQADHELFLQAFEKPTQIYRFLRTRNLIAPIFLHRTLTYMSHRNSRTSIKRKTFKVDDMLSKVEKMKGEQESHSLSAHLQLTFTGFFHKNDKPSQNSENEQNSVTLEVLLVKVCHKKRKDVSCPIRQVPTGKKQVPLNPDLNQTKPGNFPSLAVSSNEFEPSNSHMVKSYSLLFRVTRPGRREFNGMINGETNENIDVSEELPARRKRNREDGEKTFVAQMTVFDKNRRLQLLDGEYEVAMQEMEECPISKKRATWETILDGKRLPPFETFSQGPTLQFTLRWTGETNDKSTAPVAKPLATRNSESLHQENKPGSVKPAQTIAVKETLTTELQTRKEKDNSNESRQKLRIFYQFLYNNNTRQQTEARDDLHCPWCTLNCRKLYSLLKHLKLCHSRFIFNYVYHPKGARIDVSINECYDGSYAGNPQDIHRQPGFAFSRNGPVKRTPITHILVCRPKRTKASMSEFLESEDGEVEQQRTYSSGHNRLYFHSDTCLPLRPQEMEVDSEDEKDPEWLREKTITQIEEFSDVNEGEKEVMKLWNLHVMKHGFIADNQMNHACMLFVENYGQKIIKKNLCRNFMLHLVSMHDFNLISIMSIDKAVTKLREMQQKLEKGESATPSNEEIAEEQNGTANGFSETNSKEKALETDGVSGVPKQSKKQKL

binding [2]: binds
B2: SUN2 (protein, UniProt Q8BJS4 1-731)
chain: MSRRSQRLTRYSQDDNDGGSSSSGASSVAGSQGTVFKDSPLRTLKRKSSNMKHLSPAPQLGPSSDSHTSYYSESVVRESYIGSPRAVSLARSALLDDHLHSEPYWSGDLRGRRRRGTGGSESSKANGLTAESKASEDFFGSSSGYSSEDDLAGYTDSDQHSSGSRLRSAASRAGSFVWTLVTFPGRLFGLLYWWIGTTWYRLTTAASLLDVFVLTRSRHFSLNLKSFLWFLLLLLLLTGLTYGAWHFYPLGLQTLQPAVVSWWAAKESRKQPEVWESRDASQHFQAEQRVLSRVHSLERRLEALAADFSSNWQKEAIRLERLELRQGAAGHGGGSSLSHEDALSLLEGLVSRREATLKEDLRRDTVAHIQEELATLRAEHHQDSEDLFKKIVQASQESEARVQQLKTEWKSMTQEAFQESSVKELGRLEAQLASLRQELAALTLKQNSVADEVGLLPQKIQAARADVESQFPDWIRQFLLGDRGARSGLLQRDEMHAQLQELENKILTKMAEMQGKSAREAAASLGQILQKEGIVGVTEEQVHRIVKQALQRYSEDRIGMVDYALESGGASVISTRCSETYETKTALLSLFGIPLWYHSQSPRVILQPDVHPGNCWAFQGPQGFAVVRLSARIRPTAVTLEHVPKALSPNSTISSAPKDFAIFGFDEDLQQEGTLLGTFAYDQDGEPIQTFYFQASKMATYQVVELRILTNWGHPEYTCIYRFRVHGEPAH

binding [2]: no binding
B3: SUN1 (protein, UniProt Q9D666 1-913)
chain: MDFSRLHTYTPPQCVPENTGYTYALSSSYSSDALDFETEHKLEPVFDSPRMSRRSLRLVTTASYSSGDSQAIDSHISTSRATPAKGRETRTVKQRRSASKPAFSINHLSGKGLSSSTSHDSSCSLRSATVLRHPVLDESLIREQTKVDHFWGLDDDGDLKGGNKAATQGNGELAAEVASSNGYTCRDCRMLSARTDALTAHSAIHGTTSRVYSRDRTLKPRGVSFYLDRTLWLAKSTSSSFASFIVQLFQVVLMKLNFETYKLKGYESRAYESQSYETKSHESEAHLGHCGRMTAGELSRVDGESLCDDCKGKKHLEIHTATHSQLPQPHRVAGAMGRLCIYTGDLLVQALRRTRAAGWSVAEAVWSVLWLAVSAPGKAASGTFWWLGSGWYQFVTLISWLNVFLLTRCLRNICKVFVLLLPLLLLLGAGVSLWGQGNFFSLLPVLNWTAMQPTQRVDDSKGMHRPGPLPPSPPPKVDHKASQWPQESDMGQKVASLSAQCHNHDERLAELTVLLQKLQIRVDQVDDGREGLSLWVKNVVGQHLQEMGTIEPPDAKTDFMTFHHDHEVRLSNLEDVLRKLTEKSEAIQKELEETKLKAGSRDEEQPLLDRVQHLELELNLLKSQLSDWQHLKTSCEQAGARIQETVQLMFSEDQQGGSLEWLLEKLSSRFVSKDELQVLLHDLELKLLQNITHHITVTGQAPTSEAIVSAVNQAGISGITEAQAHIIVNNALKLYSQDKTGMVDFALESGGGSILSTRCSETYETKTALLSLFGVPLWYFSQSPRVVIQPDIYPGNCWAFKGSQGYLVVRLSMKIYPTTFTMEHIPKTLSPTGNISSAPKDFAVYGLETEYQEEGQPLGRFTYDQEGDSLQMFHTLERPDQAFQIVELRVLSNWGHPEYTCLYRFRVHGEPIQ
